Whole data set: some 33,000 sequences, median “E-score (-0.5 to 0.5)” near -0.0034, cut for the highest 2% near 0.25. This is one part of the list.
Molecular target: T1, Yap3 (UniProt P38749)
T1 sequence: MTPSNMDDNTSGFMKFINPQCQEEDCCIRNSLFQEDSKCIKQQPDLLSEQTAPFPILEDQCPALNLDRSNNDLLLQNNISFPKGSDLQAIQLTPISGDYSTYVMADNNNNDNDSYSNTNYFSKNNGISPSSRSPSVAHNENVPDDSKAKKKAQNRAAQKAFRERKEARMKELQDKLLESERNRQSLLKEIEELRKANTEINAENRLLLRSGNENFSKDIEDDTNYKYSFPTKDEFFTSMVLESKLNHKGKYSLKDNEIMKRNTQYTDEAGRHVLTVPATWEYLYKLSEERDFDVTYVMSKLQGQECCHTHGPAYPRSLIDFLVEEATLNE
Assay: PBM E-score (8-mer binding enrichment) (E-score (-0.5 to 0.5)); higher = stronger / more preferred TF binding
Conditions: protein concentration: 100 nM; construct: GST-full length
Method in brief: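 For each ungapped eight-base word taken together with its reverse complement, the Universal PBM Analysis Suite assigned an E-score. Binding data came from GST-tagged yeast transcription factors, applied at about 100-200 nM, on universal all-10-mer Agilent arrays made double-stranded by primer extension. Fluorescent anti-GST marked bound protein, and scans were normalised with masliner.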

Row | Sequence | PBM E-score
1 | AGTATGGA | 0.0471
2 | CACGATGA | -0.0352
3 | AGCCCGTG | -0.272
4 | ACGTACGA | 0.12
5 | ATGGCGAG | -0.0102
6 | CAGCCGTA | -0.0218
7 | GGGCCGGA | -0.221
8 | ATACCAGA | 0.0838
9 | ACCAGACG | -0.0225
10 | GGTGCAAA | -0.0554
11 | AAGACCTG | -0.0952
12 | AAAGCGAG | 0.151
13 | GCATTCTA | 0.0863
14 | CGAAAGGA | 0.0982
15 | AAAGCACG | 0.00603
16 | CACCCCCA | -0.259
17 | AATACCAG | 0.0568
18 | AACCGCTG | -0.0528
19 | CCAAACAC | 0.0223
20 | GCGTGGGA | -0.0649
21 | ACGTGTCC | -0.187
22 | GCTCAACC | -0.231
23 | GAAATTGA | 0.0938
24 | AAGAGAAA | -0.0804
25 | AGTAAGAA | 0.248

Row | Sequence | PBM E-score
26 | CTAGCTGA | -0.0664
27 | TGCGGGAA | 0.044
28 | AGTTATCC | 0.182
29 | ACCTCCGA | -0.255
30 | ATTGTGTG | -0.00808
31 | ACTGTGCG | 0.0391
32 | ACAACTGA | 0.0451
33 | ACAACTCT | -0.0568
34 | ACCGGTGA | -0.141
35 | CCCACACG | -0.0691
36 | AGGTTTTG | -0.0823
37 | CACCCCCG | -0.116
38 | ATCTACCC | 0.149
39 | CCATTACG | 0.0884
40 | GCCCTCCA | -0.253
41 | AACACAAC | 0.165
42 | AAAGCAAT | 0.233
43 | AAATACCA | 0.0504
44 | GAAGCTAC | -0.00835
45 | TGTCCTAA | -0.0134
46 | GGGGCGAA | -0.128
47 | AGAGTATC | 0.198
48 | GGATGGCA | 0.168
49 | GGCTTACA | 0.132
50 | TACGTATA | 0.142

Row | Sequence | PBM E-score
51 | AAGGGACA | 0.0649
52 | AAGGGAAA | 0.0322
53 | CCGAAGCG | -0.246
54 | AACGGGGG | -0.258
55 | ATGGTGTG | 0.0676
56 | ACTTCCAC | 0.051
57 | GCTTTCAC | -0.00313
58 | ACGAGGCC | -0.247
59 | ATCTAAGC | -0.228
60 | ATGTTGCG | 0.102
61 | CATACTAG | 0.226
62 | AGGTACCA | -0.0525
63 | AGATCAAC | -0.0012
64 | GCCGAGTA | -0.179
65 | ATCCAACA | 0.122
66 | CCTGTATC | 0.2
67 | ATATATCA | 0.118
68 | AATTGAGG | 0.1
69 | AAGATCCT | 0.126
70 | GCCCAAGA | -0.222
71 | GCTTCCAC | -0.185
72 | AGTTGGCC | -0.206
73 | CGGGCGCC | -0.126
74 | ATGCCAGA | 0.134
75 | GTGGTCCA | -0.0506

Row | Sequence | PBM E-score
76 | GTGCATAA | 0.0268
77 | ACCATGAA | 0.114
78 | ACCAAACT | 0.00739
79 | AAAGATAC | 0.0753
80 | AGAGGGGC | -0.232
81 | GCTGTAAC | 0.0596
82 | AATCACCC | 0.118
83 | ACGGGACA | -0.124
84 | CAGATTTA | 0.14
85 | AAGGCAAC | 0.0537
86 | CTATTCAG | 0.0134
87 | AAGGTCGC | -0.0767
88 | ACAGATCT | 0.0371
89 | ACCGCCTC | -0.253
90 | CAGTAATG | 0.0685
91 | AGAACCGC | 0.165
92 | AGACACTC | -0.0476
93 | TCACTAGA | 0.0909
94 | CTTAGTCC | -0.0515
95 | CGTGTGGA | -0.118
96 | TAGCCGAA | -0.0349
97 | TACCGCTA | 0.123
98 | ACTTCAAC | -0.0136
99 | GAGACACA | 0.0836
100 | AAAAACTA | 0.256

Row | Sequence | PBM E-score
101 | ATACTCTA | 0.0927
102 | AACCCGTC | -0.241
103 | GCAGTAAC | -0.126
104 | GTCGCCGA | -0.084
105 | TAAGGGAA | 0.0811
106 | CATCCGGC | -0.0421
107 | TTAAAGAA | 0.19
108 | ATTAGATG | 0.261
109 | CATTCAAC | -0.065
110 | CAAATAAG | -0.0581
111 | AGTAACTA | 0.115
112 | CGTTATAC | -0.0926
113 | CCTCGGCC | -0.107
114 | ACACCCAC | -0.069
115 | AGTCAACA | 0.124
116 | CAGGGCAA | -0.0365
117 | ATATATCG | 0.203
118 | AAGTCGTA | -0.04
119 | CAGACCTC | -0.181
120 | ACTCCCTG | 0.0264
121 | GGGGGCAA | -0.0733
122 | CCGAGTAC | -0.0586
123 | CCTATAAC | -0.0793
124 | GTACAATA | 0.104
125 | TACGGCGA | 0.0467

Row | Sequence | PBM E-score
126 | AGAGCATC | -0.0212
127 | GGCGGCGA | -0.173
128 | CAAAATAG | 0.017
129 | AGCGACAG | 0.0519
130 | AGCATGGA | -0.168
131 | TGAATACA | 0.15
132 | CATCAAGA | 0.0103
133 | AACGTAAC | 0.201
134 | AAAAGTCT | 0.0573
135 | AGGGCACC | -0.274
136 | CCCAAGAG | -0.206
137 | AGAAGCCG | -0.114
138 | AGCTCCTG | -0.232
139 | AATAAAGG | -0.0245
140 | TGAGTTAA | 0.0865
141 | CGCAGAGA | -0.0352
142 | GGTGAAAA | 0.175
143 | AATAAATA | 0.315
144 | AGCGACTC | -0.0834
145 | GTGGTGTA | -0.0507
146 | GCTAGTCA | -0.237
147 | CTAACAGA | 0.174
148 | GGCGCTCA | -0.079
149 | CACCCGAG | -0.0559
150 | ACTTGGCT | -0.116

Row | Sequence | PBM E-score
151 | AGCTATTC | -0.135
152 | ACAACAAT | 0.183
153 | ATGCAGTC | -0.172
154 | GATCTCCC | -0.194
155 | GAATATGA | 0.168
156 | AGGGTCTA | -0.135
157 | GCAGGCCA | -0.251
158 | ATGCACGG | -0.0661
159 | CCCACGGC | -0.277
160 | GAAAGAGC | -0.0302
161 | CCCAAACG | -0.154
162 | CGAAAGAC | -0.0176
163 | GGTGTAAC | 0.0027
164 | ACGGCGCA | 0.0681
165 | ATCCCACA | -0.00065
166 | ATTCAGCC | -0.0639
167 | ACGGGGTC | -0.272
168 | CTTTTACA | 0.247
169 | ACCGTTGG | -0.161
170 | CATTAGTC | 0.0988
171 | ACATGAGG | -0.109
172 | AAGGGAGG | -0.283

— the supplement of paper PMC3334620
